Experimental findings from ChEMBL document CHEMBL4118181, “Investigations on small molecule inhibitors targeting the histone H3K4 tri-methyllysine binding PHD-finger of JmjC histone demethylases” (Bioorg Med Chem, 2018) are described below.

As a reminder, the inhibition is how much of the control response was suppressed. A lower inhibition goes with little suppression.

The assay concerns the target T1, Lysine-specific demethylase 7A (Homo sapiens) (UniProt Q6ZMT4).
T1 sequence (whole entry): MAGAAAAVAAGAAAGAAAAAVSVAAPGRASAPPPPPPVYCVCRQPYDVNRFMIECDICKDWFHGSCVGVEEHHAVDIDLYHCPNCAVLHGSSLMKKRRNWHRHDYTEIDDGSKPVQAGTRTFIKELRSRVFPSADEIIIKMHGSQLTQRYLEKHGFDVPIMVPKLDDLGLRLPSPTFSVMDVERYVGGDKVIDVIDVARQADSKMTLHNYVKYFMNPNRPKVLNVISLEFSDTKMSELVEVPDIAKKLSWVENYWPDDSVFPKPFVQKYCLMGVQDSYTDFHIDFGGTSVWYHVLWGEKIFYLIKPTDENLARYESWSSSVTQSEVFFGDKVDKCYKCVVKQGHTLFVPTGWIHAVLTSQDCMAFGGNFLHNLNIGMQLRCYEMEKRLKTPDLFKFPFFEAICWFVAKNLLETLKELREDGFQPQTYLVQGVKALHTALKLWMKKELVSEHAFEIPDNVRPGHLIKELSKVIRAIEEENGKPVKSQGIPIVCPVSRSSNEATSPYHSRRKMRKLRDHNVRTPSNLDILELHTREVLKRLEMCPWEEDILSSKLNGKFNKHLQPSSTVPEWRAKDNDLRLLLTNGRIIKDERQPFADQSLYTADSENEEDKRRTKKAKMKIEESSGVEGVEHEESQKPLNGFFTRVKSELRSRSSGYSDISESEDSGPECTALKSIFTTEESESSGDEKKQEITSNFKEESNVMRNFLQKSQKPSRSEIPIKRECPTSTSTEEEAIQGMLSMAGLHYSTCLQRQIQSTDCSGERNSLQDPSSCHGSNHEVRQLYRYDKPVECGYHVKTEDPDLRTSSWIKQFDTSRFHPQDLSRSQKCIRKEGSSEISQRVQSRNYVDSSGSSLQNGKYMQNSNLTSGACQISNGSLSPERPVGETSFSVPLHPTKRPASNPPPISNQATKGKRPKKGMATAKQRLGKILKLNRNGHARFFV
Nature of the assay: Inhibition of KDM7A (PHD-JmjC) (unknown origin) demethylation activity at 100 uM preincubated for 10 mins followed by H3(1-15)K9me2 peptide substrate addition by MALDI-TOF-MS analysis.

`CCCCc1oc2ccccc2c1C(=O)c1cc(I)c(OCCN(CC)CC)c(I)c1` showed an inhibition of 83%.
